# The supplement of paper PMC7666118
# Sequences of proteins named here, by UniProt entry; tags and fusion partners are left off. A change or cut given only in a name is not applied to a line headed by its entry.
# UniProt P61106, whole entry, looked up: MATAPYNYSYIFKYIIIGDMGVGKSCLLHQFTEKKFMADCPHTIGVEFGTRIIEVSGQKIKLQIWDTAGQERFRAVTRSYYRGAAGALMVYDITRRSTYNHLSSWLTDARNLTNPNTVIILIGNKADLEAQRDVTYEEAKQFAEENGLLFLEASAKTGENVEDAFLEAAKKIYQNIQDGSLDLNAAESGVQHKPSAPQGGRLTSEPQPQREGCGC
# UniProt Q969X0: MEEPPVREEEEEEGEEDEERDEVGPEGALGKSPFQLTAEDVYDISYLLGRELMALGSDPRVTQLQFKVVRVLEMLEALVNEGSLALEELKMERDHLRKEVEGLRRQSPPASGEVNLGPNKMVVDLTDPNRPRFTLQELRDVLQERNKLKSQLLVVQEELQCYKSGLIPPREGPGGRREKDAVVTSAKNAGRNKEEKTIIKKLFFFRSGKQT
# UniProt Q13546: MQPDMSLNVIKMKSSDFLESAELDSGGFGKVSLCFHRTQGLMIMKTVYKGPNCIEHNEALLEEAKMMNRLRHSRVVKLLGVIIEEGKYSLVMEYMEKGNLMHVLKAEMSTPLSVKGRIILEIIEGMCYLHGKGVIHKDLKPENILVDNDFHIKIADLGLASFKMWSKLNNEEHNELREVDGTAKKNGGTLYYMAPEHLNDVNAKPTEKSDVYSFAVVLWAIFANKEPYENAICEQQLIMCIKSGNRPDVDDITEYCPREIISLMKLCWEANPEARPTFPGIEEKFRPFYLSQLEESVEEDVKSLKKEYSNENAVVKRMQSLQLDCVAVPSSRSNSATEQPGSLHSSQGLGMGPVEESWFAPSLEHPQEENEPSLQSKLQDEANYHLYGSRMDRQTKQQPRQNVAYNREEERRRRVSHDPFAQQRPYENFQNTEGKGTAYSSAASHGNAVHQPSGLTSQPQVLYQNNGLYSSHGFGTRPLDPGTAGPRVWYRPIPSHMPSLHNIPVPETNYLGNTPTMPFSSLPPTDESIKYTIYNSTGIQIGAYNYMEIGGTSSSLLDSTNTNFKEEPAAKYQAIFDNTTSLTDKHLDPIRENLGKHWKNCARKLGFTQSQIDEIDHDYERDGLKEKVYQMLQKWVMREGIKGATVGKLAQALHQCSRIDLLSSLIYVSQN
# UniProt Q7L0Y3: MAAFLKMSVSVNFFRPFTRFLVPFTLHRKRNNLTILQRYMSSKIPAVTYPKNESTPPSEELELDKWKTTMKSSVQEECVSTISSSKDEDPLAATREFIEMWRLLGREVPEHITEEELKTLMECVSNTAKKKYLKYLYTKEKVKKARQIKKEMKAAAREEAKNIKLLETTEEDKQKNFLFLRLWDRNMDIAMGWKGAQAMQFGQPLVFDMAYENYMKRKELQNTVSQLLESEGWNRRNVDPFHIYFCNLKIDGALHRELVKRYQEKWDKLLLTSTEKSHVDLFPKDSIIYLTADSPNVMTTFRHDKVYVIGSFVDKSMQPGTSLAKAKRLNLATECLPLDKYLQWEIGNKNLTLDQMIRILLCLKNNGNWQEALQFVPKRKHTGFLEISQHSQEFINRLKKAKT
# UniProt P35251: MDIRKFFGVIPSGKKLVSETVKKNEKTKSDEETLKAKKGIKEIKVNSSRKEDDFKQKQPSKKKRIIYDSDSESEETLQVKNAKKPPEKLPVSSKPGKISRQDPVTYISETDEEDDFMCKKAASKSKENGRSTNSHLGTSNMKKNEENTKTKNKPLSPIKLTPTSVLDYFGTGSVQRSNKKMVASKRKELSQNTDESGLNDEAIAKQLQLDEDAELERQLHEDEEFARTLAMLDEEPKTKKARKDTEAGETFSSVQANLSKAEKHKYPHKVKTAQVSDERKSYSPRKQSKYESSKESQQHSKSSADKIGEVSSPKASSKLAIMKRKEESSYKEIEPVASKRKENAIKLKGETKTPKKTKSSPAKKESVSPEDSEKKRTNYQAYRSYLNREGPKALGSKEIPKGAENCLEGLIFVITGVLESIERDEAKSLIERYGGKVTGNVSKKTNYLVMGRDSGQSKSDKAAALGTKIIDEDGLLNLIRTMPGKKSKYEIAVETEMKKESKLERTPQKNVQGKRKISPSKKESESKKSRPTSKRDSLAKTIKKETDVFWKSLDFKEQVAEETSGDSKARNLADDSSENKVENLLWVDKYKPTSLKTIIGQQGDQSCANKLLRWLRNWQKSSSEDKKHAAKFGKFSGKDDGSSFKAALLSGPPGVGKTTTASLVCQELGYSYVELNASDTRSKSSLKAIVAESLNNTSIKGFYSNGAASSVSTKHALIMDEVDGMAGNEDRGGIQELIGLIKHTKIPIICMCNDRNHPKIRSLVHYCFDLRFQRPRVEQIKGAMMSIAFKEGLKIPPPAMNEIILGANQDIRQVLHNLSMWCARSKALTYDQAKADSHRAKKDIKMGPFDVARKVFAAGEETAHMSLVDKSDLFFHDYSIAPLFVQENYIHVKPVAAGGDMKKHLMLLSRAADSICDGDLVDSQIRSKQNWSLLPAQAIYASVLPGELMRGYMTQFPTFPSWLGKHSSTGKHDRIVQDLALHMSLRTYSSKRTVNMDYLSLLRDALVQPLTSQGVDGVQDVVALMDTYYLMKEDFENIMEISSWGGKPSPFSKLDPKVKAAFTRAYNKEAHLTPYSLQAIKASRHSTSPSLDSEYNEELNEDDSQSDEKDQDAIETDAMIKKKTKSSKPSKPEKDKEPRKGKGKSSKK
# UniProt Q5T160: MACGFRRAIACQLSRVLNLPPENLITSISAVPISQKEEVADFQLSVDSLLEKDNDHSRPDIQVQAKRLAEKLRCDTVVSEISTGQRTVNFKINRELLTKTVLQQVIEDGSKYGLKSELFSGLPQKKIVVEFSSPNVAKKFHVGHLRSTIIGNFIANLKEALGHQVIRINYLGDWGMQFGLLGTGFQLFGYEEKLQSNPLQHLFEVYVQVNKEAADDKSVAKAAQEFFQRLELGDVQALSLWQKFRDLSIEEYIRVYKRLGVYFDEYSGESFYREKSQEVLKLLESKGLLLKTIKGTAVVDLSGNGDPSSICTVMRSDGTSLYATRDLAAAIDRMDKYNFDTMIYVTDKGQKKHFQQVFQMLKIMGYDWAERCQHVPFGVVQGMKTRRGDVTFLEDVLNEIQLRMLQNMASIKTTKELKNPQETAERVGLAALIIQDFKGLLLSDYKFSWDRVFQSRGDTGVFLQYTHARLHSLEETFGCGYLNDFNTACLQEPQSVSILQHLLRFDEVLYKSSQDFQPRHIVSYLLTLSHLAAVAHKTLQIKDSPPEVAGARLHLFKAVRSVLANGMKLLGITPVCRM
# UniProt O14730: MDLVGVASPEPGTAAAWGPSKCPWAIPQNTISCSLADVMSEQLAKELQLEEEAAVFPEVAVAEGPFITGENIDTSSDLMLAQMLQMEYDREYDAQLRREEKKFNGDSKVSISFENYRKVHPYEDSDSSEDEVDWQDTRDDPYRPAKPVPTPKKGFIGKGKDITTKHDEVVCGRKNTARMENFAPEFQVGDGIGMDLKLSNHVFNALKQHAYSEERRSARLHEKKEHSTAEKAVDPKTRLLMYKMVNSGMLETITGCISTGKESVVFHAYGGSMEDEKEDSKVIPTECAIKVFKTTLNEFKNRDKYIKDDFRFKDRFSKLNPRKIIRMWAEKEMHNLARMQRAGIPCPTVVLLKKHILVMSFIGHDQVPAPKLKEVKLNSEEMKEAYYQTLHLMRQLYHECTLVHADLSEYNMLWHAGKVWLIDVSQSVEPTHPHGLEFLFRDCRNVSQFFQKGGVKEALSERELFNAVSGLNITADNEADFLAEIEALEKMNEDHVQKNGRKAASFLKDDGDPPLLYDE
# UniProt Q05823: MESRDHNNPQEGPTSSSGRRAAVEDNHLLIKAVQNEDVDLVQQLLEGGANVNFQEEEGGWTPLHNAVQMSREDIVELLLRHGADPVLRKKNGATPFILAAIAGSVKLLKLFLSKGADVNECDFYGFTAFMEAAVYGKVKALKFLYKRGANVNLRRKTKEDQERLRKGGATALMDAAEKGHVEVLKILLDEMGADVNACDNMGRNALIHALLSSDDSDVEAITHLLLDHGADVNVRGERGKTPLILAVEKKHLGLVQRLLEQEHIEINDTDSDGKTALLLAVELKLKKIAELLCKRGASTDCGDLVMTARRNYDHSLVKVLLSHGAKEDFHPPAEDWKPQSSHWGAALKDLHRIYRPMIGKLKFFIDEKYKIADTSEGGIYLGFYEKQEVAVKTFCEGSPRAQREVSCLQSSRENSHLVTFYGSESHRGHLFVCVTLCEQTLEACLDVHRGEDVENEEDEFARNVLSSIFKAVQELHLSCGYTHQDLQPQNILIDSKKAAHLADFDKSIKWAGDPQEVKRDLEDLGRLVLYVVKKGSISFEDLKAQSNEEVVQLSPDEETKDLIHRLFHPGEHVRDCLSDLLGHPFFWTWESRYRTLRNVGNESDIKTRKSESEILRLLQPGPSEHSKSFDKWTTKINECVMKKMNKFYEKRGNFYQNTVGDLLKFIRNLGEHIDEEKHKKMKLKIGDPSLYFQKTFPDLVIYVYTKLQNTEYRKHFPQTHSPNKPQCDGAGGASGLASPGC
# UniProt O43353, whole entry: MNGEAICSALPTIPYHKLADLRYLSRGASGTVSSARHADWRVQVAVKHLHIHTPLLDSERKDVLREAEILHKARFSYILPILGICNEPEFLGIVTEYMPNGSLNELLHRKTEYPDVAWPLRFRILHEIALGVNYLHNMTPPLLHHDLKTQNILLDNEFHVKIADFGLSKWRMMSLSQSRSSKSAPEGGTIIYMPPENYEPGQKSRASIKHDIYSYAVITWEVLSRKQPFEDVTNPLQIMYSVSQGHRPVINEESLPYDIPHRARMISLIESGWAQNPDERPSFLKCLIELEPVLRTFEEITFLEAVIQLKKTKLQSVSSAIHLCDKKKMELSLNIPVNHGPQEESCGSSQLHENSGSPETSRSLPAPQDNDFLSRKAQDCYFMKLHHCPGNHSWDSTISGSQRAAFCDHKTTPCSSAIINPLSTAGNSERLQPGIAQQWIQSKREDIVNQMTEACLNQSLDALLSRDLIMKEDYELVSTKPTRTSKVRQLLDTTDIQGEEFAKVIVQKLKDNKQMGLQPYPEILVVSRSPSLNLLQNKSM
# The list shows a part of the results.
# Compound: COc1ccc(Cn2ccc3cc(C)c(C(=O)NO)cc32)cc1
# Assay: dose-dependent thermal stabilisation call (2D-TPP, DLPTP, 10% FDR) (binary (1 = stabilised)); higher = stabilised by the compound
# Details: system: HL-60 intact cells; concentration range 0.04-10 µM
# Procedure: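 2D thermal proteome profiling in intact HL-60 cells treated with BRD-3811 (0, 0.04, 0.29, 2, 10 uM) for 90 min at 37 C, then heated 3 min at one of 12 temperatures (42-63.9 C). Soluble protein was quantified by TMT10 MS. The value is the DLPTP call of the paper: dose-dependent thermal stabilisation over all temperatures at 10% FDR (F-test of a dose-response against a flat model); one experiment, one call per tested protein.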
row,Target,dose-dependent thermal stabilisation call
1,RAB14 (UniProt P61106),inactive: 0
2,RILPL2 (UniProt Q969X0),inactive: 0
3,RIPK1 (UniProt Q13546),inactive: 0
4,RG9MTD1 (UniProt Q7L0Y3),inactive: 0
5,RFC1 (UniProt P35251),inactive: 0
6,RARS2 (UniProt Q5T160),inactive: 0
7,RIOK3 (UniProt O14730),inactive: 0
8,RNASEL (UniProt Q05823),inactive: 0
9,RIPK2 (UniProt O43353),inactive: 0
